Data: PubChem BioAssay AID256 (DTP/NCI, 2004)
The list does not hold the whole screen: it is rich in T/C values a quarter to a half above the control, in often repeated tests (any T/C) and in doses without a T/C. Other doses and runs of a compound stand elsewhere. T/C gives the treated animals as a percentage of the vehicle group. Some doses have a count of surviving animals in place of a T/C: the source holds a T/C of zero for them, seemingly a mark for toxic or unscored doses. Some doses without a T/C left all or most animals alive at the check, yet need not have been tolerated: survival well below the control is almost never listed, so the zero probably covers shortened survival too. Survivors were counted at the toxicity check, usually on the fifth day, unless a day is given; later deaths do not show. Schedule codes are those of the source, read here as Q, the interval in days (D) or hours (H), X, the number of doses. Some entries were tested several times; the results are listed from low to high. Some schedules carry Z or #; the key to these is not given. Some structures stand for samples that the source files as different forms (salt, stereo form or complex); doses refer to the form tested. Where survival is the endpoint, this PubChem deposit counts one and a half times the control or more as active, and values a quarter to a half above the control carry no call in these data; other NCI protocols may use other cut-offs. Some T/C values are followed by the survivors on the day toxicity was checked, most often the fifth; without a count, all were alive then.

System: CD2F1 mice, L1210 leukemia ip, survival T/C
Assay: NCI In Vivo Anticancer Drug Screen. Data for tumor model L1210 Leukemia (intraperitoneal) in CD2F1 (CDF1) mice
Conditions: higher T/C = longer survival
Summary of the method: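 Read-out first: treated-group measurement over vehicle-control measurement, expressed as a ratio. Animals bore a transplanted tumor line and were dosed with compound or vehicle.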

[1] = T/C endpoint: mean survival time, dose: 400.0 mg/kg/injection, schedule: Q01DX001 (ip), vehicle: saline
[2] = T/C endpoint: mean survival time, dose: 400.0 mg/kg/injection, schedule: Q01DX009 (ip), vehicle: saline with Tween-80
[3] = T/C endpoint: mean survival time, dose: 200.0 mg/kg/injection, schedule: Q04DX003 (ip), vehicle: saline with Tween-80
[4] = T/C endpoint: mean survival time, dose: 200.0 mg/kg/injection, schedule: Q01DX001 (ip), vehicle: saline

N=C(N)SCc1c2ccccc2c(CSC(=N)N)c2ccccc12
T/C (T/C endpoint: mean survival time, dose: 0.26 mg/kg/injection, schedule: Q#B X Z (ip), vehicle: saline): 131 % of control
T/C (T/C endpoint: mean survival time, dose: 0.52 mg/kg/injection, schedule: Q#B X Z (ip), vehicle: saline): 141 and 143 % of control
T/C (T/C endpoint: mean survival time, dose: 1.56 mg/kg/injection, schedule: Q01DX Z (ip), vehicle: saline): 130 % of control
T/C (T/C endpoint: mean survival time, dose: 2.5 mg/kg/injection, schedule: Q01DX001 (ip), vehicle: saline): 130 % of control
T/C (T/C endpoint: mean survival time, dose: 3.13 mg/kg/injection, schedule: Q01DX Z (ip), vehicle: saline): 143 % of control
T/C (T/C endpoint: mean survival time, dose: 4.16 mg/kg/injection, schedule: Q#B X Z (ip), vehicle: saline): 133 % of control
T/C (T/C endpoint: mean survival time, dose: 5.0 mg/kg/injection, schedule: Q01DX001 (ip), vehicle: saline): 145 % of control
T/C (T/C endpoint: mean survival time, dose: 10.0 mg/kg/injection, schedule: Q01DX001 (ip), vehicle: saline): 144 % of control
T/C (T/C endpoint: mean survival time, dose: 20.0 mg/kg/injection, schedule: Q01DX001 (ip), vehicle: saline): 144 % of control
survivor count (T/C endpoint: mean survival time, dose: 33.33 mg/kg/injection, schedule: Q#B X Z (ip), vehicle: saline): 6 of 6
T/C (T/C endpoint: mean survival time, dose: 40.0 mg/kg/injection, schedule: Q01DX001 (ip), vehicle: saline): 142 % of control
T/C (T/C endpoint: mean survival time, dose: 50.0 mg/kg/injection, schedule: Q01DX009 (ip), vehicle: saline): 144 % of control
T/C (T/C endpoint: mean survival time, dose: 50.0 mg/kg/injection, schedule: Q01DX Z (ip), vehicle: saline): 127 % of control
T/C (T/C endpoint: mean survival time, dose: 50.0 mg/kg/injection, schedule: Q06HX008 (ip), vehicle: saline): 135 % of control
survivor count (T/C endpoint: mean survival time, dose: 66.66 mg/kg/injection, schedule: Q#B X Z (ip), vehicle: saline): 3 of 6
T/C (T/C endpoint: mean survival time, dose: 100.0 mg/kg/injection, schedule: Q06HX004 (ip), vehicle: saline): 132 % of control
T/C (T/C endpoint: mean survival time, dose: 100.0 mg/kg/injection, schedule: Q06HX008 (ip), vehicle: saline): 141 % of control
T/C (T/C endpoint: mean survival time, dose: 160.0 mg/kg/injection, schedule: Q01DX001 (ip), vehicle: saline): 134 % of control
T/C (T/C endpoint: mean survival time, dose: 200.0 mg/kg/injection, schedule: Q06HX004 (ip), vehicle: saline): 137 % of control
T/C (T/C endpoint: mean survival time, dose: 250.0 mg/kg/injection, schedule: Q01DX001 (ip), vehicle: saline): 136 % of control
T/C [1]: 145 % of control
survivor count (T/C endpoint: mean survival time, dose: 400.0 mg/kg/injection, schedule: Q01DX Z (ip), vehicle: saline): 4 of 6
T/C (T/C endpoint: mean survival time, dose: 400.0 mg/kg/injection, schedule: Q03HX008 (ip), vehicle: saline): 130 % of control [9 of 10 alive]
T/C (T/C endpoint: mean survival time, dose: 400.0 mg/kg/injection, schedule: Q12HX002 (ip), vehicle: saline): 128 % of control
T/C (T/C endpoint: mean survival time, dose: 500.0 mg/kg/injection, schedule: Q01DX001 (ip), vehicle: saline): 147 % of control
survivor count (T/C endpoint: mean survival time, dose: 640.0 mg/kg/injection, schedule: Q01DX001 (ip), vehicle: saline): 4 of 6
survivor count (T/C endpoint: mean survival time, dose: 1600.0 mg/kg/injection, schedule: Q01DX010 (oral), vehicle: saline): 6 of 6
T/C (T/C endpoint: mean survival time, dose: 2000.0 mg/kg/injection, schedule: Q01DX001 (ip), vehicle: saline): 142 % of control
T/C (T/C endpoint: mean survival time, dose: 4000.0 mg/kg/injection, schedule: Q01DX001 (ip), vehicle: saline): 145 % of control

COc1c2c(c(OC)c3c1C(=O)c1ccccc1C3=O)CC=CC2
survivor count (T/C endpoint: mean survival time, dose: 150.0 mg/kg/injection, schedule: Q01DX009 (ip), vehicle: other): 6 of 6

CCOc1cccc(Cl)n1
survivor count [2]: 1 of 6

O=c1[nH]cnc2c1ccn2C1OC(CO)C(O)C1O (configuration not stated)
survivor count (T/C endpoint: mean survival time, dose: 25.0 mg/kg/injection, schedule: Q01DX009 (ip), vehicle: saline): 3 of 6
T/C (T/C endpoint: mean survival time, dose: 25.0 mg/kg/injection, schedule: Q04DX003 (ip), vehicle: saline sonified): 126 % of control
survivor count (T/C endpoint: mean survival time, dose: 100.0 mg/kg/injection, schedule: Q04DX003 (ip), vehicle: saline with Tween-80): 0 of 6
survivor count [3]: 0 of 6
survivor count (T/C endpoint: mean survival time, dose: 400.0 mg/kg/injection, schedule: Q04DX003 (ip), vehicle: saline with Tween-80): 0 of 6

CCCCOC(=O)C(C(=O)OCCCC)(C(=O)OCCCC)C(C(=O)OCCCC)(C(=O)OCCCC)C(=O)OCCCC
survivor count [4]: 3 of 3

COc1cccc2c1C(=O)c1c(O)c3c(c(O)c1C2=O)C[C@@](O)(C(=O)CO)C[C@@H]3OC1CC(OC(C)=O)C(OC(C)=O)C(C)O1 (some centres not stated)
T/C (T/C endpoint: mean survival time, dose: 3.12 mg/kg/injection, schedule: Q01DX009 (ip), vehicle: distilled water + Tween-80): 129 and 131 % of control
T/C (T/C endpoint: mean survival time, dose: 6.25 mg/kg/injection, schedule: Q01DX009 (ip), vehicle: distilled water + Tween-80): 147 and 148 % of control
T/C (T/C endpoint: mean survival time, dose: 12.5 mg/kg/injection, schedule: Q01DX009 (ip), vehicle: distilled water + Tween-80): 133 % of control
survivor count (T/C endpoint: mean survival time, dose: 25.0 mg/kg/injection, schedule: Q01DX009 (ip), vehicle: distilled water + Tween-80): 10 of 10
survivor count (T/C endpoint: mean survival time, dose: 50.0 mg/kg/injection, schedule: Q01DX009 (ip), vehicle: distilled water + Tween-80): 9 of 10 and 6 of 6
survivor count (T/C endpoint: mean survival time, dose: 100.0 mg/kg/injection, schedule: Q01DX009 (ip), vehicle: distilled water + Tween-80): 10 of 10 and 6 of 6
T/C (T/C endpoint: median survival time, dose: 1.57 mg/kg/injection, schedule: Q01DX009 (ip), vehicle: distilled water + Tween-80): 125 % of control
T/C (T/C endpoint: median survival time, dose: 3.12 mg/kg/injection, schedule: Q01DX009 (ip), vehicle: distilled water + Tween-80): 137 % of control [9 of 10 alive]
T/C (T/C endpoint: median survival time, dose: 3.13 mg/kg/injection, schedule: Q01DX009 (ip), vehicle: distilled water + Tween-80): 133 % of control

C[C@]12CCC(=O)C=C1CC[C@@H]1[C@@H]2[C@@H](O)C[C@@]2(C)[C@H]1CC[C@]2(O)C(=O)COP(=O)(O)OCC1OC(n2ccc(N)nc2=O)C(O)C1O (some centres not stated)
T/C (T/C endpoint: mean survival time, dose: 20.0 mg/kg/injection, schedule: Q01DX005 (ip), vehicle: other): 126 % of control
T/C (T/C endpoint: mean survival time, dose: 30.0 mg/kg/injection, schedule: Q01DX005 (ip), vehicle: other): 129 % of control
T/C (T/C endpoint: mean survival time, dose: 40.0 mg/kg/injection, schedule: Q01DX005 (ip), vehicle: other): 144 % of control
T/C (T/C endpoint: mean survival time, dose: 60.0 mg/kg/injection, schedule: Q01DX005 (ip), vehicle: other): 144 and 146 % of control

C1CCC(C2CCCC[N-]2)[N-]C1.O=C(O)C1CCC[N-]1.[Cl][Pt] (configuration not stated)
survivor count (T/C endpoint: median survival time, dose: 320.0 mg/kg/injection, schedule: Q04DX003 (ip), vehicle: saline): 4 of 4

Cc1cn(C(C=O)OC(C=O)CO)c(=O)[nH]c1=O (configuration not stated)
T/C (T/C endpoint: mean survival time, dose: 80.0 mg/kg/injection, schedule: Q01DX005 (ip), vehicle: water): 133 % of control
survivor count (T/C endpoint: mean survival time, dose: 160.0 mg/kg/injection, schedule: Q01DX005 (ip), vehicle: water): 4 of 6

O=C(O)c1cc[c]([Hg][S]c2ncnc3nc[nH]c23)cc1
T/C (T/C endpoint: mean survival time, dose: 16.5 mg/kg/injection, schedule: Q01DX009 (ip), vehicle: saline sonified): 132 % of control
T/C (T/C endpoint: mean survival time, dose: 25.0 mg/kg/injection, schedule: Q01DX009 (ip), vehicle: saline sonified, evaluated on day 20): 136 % of control
T/C (T/C endpoint: mean survival time, dose: 25.0 mg/kg/injection, schedule: Q01DX009 (ip), vehicle: saline sonified, evaluated on day 30): 135 % of control
T/C (T/C endpoint: mean survival time, dose: 50.0 mg/kg/injection, schedule: Q01DX009 (ip), vehicle: saline sonified): 136 % of control
T/C (T/C endpoint: mean survival time, dose: 50.0 mg/kg/injection, schedule: Q04DX003 (ip), vehicle: saline with Tween-80): 129 % of control
survivor count (T/C endpoint: mean survival time, dose: 75.0 mg/kg/injection, schedule: Q04DX003 (ip), vehicle: saline sonified): 2 of 6
survivor count [3]: 0 of 6

COc1ccc(OC)c(NC(=O)NNC(=O)c2ccccc2Cl)c1
survivor count (T/C endpoint: mean survival time, dose: 100.0 mg/kg/injection, schedule: Q01DX009 (ip), vehicle: saline with Tween-80): 6 of 6
survivor count (T/C endpoint: mean survival time, dose: 200.0 mg/kg/injection, schedule: Q01DX009 (ip), vehicle: saline with Tween-80): 5 of 6
survivor count [2]: 6 of 6

CC(C)N1CCc2cc3c(cc2C1)OCO3
survivor count (T/C endpoint: mean survival time, dose: 150.0 mg/kg/injection, schedule: Q01DX001 (ip), vehicle: saline): 2 of 6
survivor count [4]: 0 of 6
survivor count (T/C endpoint: mean survival time, dose: 300.0 mg/kg/injection, schedule: Q01DX001 (ip), vehicle: saline): 0 of 6
survivor count [1]: 0 of 6
